Test results from PMC5385539.
These are yes or no findings as the source states them, for the method shown. Binding seen in cells or lysates may run through a third protein. Some results given as binding are weak or reduced against the parent protein; the word gives no strength. Tags and fused reporters may be left off the sequences shown.

By UniProt entry, the sequences of proteins in these tests, tags left out.
UniProt Q8CGN4: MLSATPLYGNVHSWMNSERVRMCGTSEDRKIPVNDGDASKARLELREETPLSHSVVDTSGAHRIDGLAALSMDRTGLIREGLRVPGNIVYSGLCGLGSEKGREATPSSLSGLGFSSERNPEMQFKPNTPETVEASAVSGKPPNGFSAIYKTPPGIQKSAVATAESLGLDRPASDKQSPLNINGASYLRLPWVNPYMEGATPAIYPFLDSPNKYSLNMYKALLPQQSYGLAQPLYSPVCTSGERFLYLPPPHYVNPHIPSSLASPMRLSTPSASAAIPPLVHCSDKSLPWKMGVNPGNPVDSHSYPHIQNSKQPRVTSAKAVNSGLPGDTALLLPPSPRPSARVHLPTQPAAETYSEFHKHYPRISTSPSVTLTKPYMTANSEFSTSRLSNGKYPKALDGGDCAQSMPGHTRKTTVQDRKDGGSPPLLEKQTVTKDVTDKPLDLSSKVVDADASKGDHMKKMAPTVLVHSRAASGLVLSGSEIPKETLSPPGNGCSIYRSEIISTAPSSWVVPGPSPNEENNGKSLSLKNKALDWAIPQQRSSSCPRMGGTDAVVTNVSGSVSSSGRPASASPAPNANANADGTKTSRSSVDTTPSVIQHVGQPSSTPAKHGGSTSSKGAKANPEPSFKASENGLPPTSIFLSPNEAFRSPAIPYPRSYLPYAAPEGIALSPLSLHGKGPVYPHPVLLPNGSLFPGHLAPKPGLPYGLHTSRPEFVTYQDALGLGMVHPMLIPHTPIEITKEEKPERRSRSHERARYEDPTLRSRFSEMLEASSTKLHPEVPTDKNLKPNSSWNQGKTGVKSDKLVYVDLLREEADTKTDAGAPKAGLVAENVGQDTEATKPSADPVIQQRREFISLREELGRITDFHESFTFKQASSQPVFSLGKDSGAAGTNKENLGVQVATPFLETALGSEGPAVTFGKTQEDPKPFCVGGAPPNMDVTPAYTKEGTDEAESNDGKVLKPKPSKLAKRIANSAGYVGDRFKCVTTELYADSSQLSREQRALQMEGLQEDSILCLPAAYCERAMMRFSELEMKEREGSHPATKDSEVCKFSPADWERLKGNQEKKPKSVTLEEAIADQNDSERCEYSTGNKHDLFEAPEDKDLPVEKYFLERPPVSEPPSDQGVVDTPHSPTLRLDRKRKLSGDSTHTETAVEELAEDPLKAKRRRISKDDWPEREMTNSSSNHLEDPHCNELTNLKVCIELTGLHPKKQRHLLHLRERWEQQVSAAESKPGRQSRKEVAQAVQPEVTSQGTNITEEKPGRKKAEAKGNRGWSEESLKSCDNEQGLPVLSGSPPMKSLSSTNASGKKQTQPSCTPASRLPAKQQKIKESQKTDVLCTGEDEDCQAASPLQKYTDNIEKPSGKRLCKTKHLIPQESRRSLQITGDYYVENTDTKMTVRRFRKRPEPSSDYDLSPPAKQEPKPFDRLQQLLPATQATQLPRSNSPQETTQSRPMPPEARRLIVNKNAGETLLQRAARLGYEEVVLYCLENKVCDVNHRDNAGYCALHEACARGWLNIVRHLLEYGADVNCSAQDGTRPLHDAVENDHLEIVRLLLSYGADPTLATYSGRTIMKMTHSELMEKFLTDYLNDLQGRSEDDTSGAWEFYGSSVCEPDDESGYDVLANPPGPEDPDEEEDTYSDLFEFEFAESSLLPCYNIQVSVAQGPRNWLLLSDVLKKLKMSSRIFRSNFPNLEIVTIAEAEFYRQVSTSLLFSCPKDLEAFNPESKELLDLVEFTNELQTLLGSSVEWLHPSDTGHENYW
UniProt Q80U70: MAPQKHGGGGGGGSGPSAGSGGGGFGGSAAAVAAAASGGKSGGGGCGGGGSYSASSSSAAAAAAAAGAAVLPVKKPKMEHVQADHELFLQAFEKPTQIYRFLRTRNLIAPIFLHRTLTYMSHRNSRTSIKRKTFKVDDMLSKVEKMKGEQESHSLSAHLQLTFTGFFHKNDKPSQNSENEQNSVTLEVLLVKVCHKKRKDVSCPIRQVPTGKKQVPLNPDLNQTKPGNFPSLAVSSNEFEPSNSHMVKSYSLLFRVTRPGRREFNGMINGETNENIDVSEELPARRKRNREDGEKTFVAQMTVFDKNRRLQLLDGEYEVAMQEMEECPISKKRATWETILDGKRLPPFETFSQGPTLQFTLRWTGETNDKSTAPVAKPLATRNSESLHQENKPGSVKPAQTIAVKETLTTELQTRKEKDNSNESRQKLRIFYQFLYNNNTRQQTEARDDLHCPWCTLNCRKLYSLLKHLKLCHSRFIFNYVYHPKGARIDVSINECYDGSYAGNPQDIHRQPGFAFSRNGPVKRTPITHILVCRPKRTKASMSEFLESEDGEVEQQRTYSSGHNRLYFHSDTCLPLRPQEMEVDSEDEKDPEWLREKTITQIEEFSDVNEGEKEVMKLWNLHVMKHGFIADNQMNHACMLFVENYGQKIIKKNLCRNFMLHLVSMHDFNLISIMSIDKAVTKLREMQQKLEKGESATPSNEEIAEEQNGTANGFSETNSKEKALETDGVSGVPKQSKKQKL

T1: Flag-tagged Pcgf1 (mouse) (UniProt Q8R023)
T1 sequence: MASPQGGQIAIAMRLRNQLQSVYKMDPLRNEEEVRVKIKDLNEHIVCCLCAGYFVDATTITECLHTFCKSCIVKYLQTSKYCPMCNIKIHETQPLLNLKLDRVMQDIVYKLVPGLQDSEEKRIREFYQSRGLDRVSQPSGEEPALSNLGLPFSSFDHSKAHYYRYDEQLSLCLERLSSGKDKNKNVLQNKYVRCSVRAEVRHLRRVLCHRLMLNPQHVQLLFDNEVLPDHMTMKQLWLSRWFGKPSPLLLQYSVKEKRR

B1: Rybp (protein, UniProt Q8CCI5 1-228)
chain: MTMGDKKSPTRPKRQAKPAADEGFWDCSVCTFRNSAEAFKCSICDVRKGTSTRKPRINSQLVAQQVAQQYATPPPPKKEKKEKVEKPDKEKPEKDKDISPSVTKKNTNKKTKPKSDILKDPPSEANSIQSANATTKTSETNHTSRPRLKNVDRSTAQQLAVTVGNVTVIITDFKEKTRSSSTSSSTVTSSAGSEQQNQSSSGSESTDKGSSRSSTPKGDMSAVNDESF

Molecular target: T1, Flag-tagged Pcgf1 (mouse)
Assay: co-IP; nuclear extracts of Pcgf1-/- ES cells rescued with Flag-tagged Pcgf1 incubated with anti-Flag M2 agarose beads overnight at 4 °C; washed 3 times with 20 mM Tris-HCl pH 8.0, 450 mM NaCl, 0.2 mM EDTA; bound proteins detected by Western blot; control: WT cells infected with empty vector

| binding | Molecule |
| --- | --- |
| binds | BcoR (from UniProt Q8CGN4 1-1759) |
| no binding | Suz12 (from UniProt Q80U70 1-741) |
| binds | B1 |
